Laboratory results taken from patent publication US20070154905A1.
No constants are given. Whether binding was seen depends on the method and setting. For part of these data: In cells and extracts the contact can be indirect. Some results given as binding are weak or reduced against the parent protein; the word gives no strength. For part of these data: Where a sequence is shown, tags or fusion partners need not be part of it.

The chains behind the UniProt entries cited, without tags or fusion partners. Residues count along the entry.
UniProt P25445, residues 26-335: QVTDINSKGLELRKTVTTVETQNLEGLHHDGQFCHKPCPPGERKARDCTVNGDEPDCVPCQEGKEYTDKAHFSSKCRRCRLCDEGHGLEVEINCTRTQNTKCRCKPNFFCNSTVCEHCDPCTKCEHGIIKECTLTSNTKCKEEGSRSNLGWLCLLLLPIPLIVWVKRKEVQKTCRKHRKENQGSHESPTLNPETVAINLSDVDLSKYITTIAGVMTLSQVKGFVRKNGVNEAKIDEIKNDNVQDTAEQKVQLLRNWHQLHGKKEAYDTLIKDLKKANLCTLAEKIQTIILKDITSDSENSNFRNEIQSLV

Assays:
[1] = molecular target: GST fusion with the human Fas-IC (human) [GST: P08515]; assay: GST pull-down of 35S-labelled FLAG-MORT-1 from HeLa extracts, SDS-PAGE and autoradiography
[2] = molecular target: T1, GST fusion with the mouse Fas-IC (mouse) (UniProt P25446); assay: as above
T1 sequence (looked up): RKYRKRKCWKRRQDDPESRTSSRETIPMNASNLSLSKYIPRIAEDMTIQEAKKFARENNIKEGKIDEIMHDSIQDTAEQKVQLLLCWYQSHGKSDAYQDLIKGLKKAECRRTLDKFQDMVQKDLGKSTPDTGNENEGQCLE

[3] = molecular target: human FAS-R (whole receptor expressed in HeLa cells) (human) (UniProt P25445); assay: cross immunoprecipitation from co-transfected HeLa cells, both directions
[4] = molecular target: T2, MORT-1-binding protein of Example 2 (product of the two cDNA clones from the human B-cell library) (human) (UniProt Q15628); assay: yeast two-hybrid screen of a human B cell library with MORT-1 as bait
T2 sequence (looked up): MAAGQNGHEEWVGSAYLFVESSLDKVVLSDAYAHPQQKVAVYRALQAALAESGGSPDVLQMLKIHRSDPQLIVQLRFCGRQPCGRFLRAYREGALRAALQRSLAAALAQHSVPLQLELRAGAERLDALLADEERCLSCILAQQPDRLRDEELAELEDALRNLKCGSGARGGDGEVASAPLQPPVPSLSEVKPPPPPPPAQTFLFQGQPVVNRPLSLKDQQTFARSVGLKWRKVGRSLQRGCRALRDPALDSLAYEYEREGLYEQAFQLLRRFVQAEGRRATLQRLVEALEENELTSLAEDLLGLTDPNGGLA

[5] = molecular target: T3, MORT-1 protein (full-length) (human); assay: as above
T3 sequence: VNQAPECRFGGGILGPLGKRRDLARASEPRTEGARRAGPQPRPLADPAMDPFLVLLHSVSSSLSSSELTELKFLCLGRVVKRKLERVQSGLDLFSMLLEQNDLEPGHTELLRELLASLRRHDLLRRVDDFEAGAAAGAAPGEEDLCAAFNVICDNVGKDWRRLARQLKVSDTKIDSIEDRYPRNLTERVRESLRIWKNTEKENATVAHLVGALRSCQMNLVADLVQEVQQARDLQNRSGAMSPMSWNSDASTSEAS

[6] = molecular target: T4, intracellular domain of mouse FAS-R (full-length Fas-IC construct) (mouse) (UniProt P25446); assay: yeast two-hybrid, β-galactosidase test (FIG. 1)
T4 sequence (looked up): T1 sequence (looked up)

[7] = molecular target: T3, MORT-1 protein (full-length) (human); assay: yeast two-hybrid, β-galactosidase test (FIG. 1)
[8] = molecular target: T3, MORT-1 protein (full-length) (human); assay: yeast two-hybrid, β-galactosidase filter assay
[9] = molecular target: T3, MORT-1 protein (full-length) (human); assay: co-immunoprecipitation from 293-EBNA cell lysates
[10] = molecular target: T5, glutathione-S-transferase-MORT-1 fusion protein (human); assay: in vitro binding to GST-MORT-1
T5 sequence: T3 sequence

[11] = molecular target: T6, MORT-1 fragment, amino acids 1-117 (N-terminal part) (human); assay: yeast two-hybrid, β-gal filter assay (FIG. 5)
T6 sequence: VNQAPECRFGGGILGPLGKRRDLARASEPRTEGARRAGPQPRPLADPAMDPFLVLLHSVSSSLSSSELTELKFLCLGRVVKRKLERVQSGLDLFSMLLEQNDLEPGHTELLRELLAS

[12] = molecular target: T3, MORT-1 protein (full-length) (human); assay: co-expression in mammalian cells
[13] = molecular target: T7, MORT1 fused at its N terminus to the HA epitope (human); assay: co-immunoprecipitation of 35S-labelled FLAG- and HA-tagged proteins from HeLa cells, SDS-PAGE and autoradiography
T7 sequence: T3 sequence

B1: MORT-1 fused at its N terminus with the FLAG octapeptide (protein, not shown: small tags and cut ends)
chain: T3 sequence
binding [1]: binds
binding [2]: binds
binding [3]: binds

B2: MORT-1 protein (full-length) (protein)
chain: T3 sequence
binding [4]: binds
binding [5]: binds
binding [6]: binds
binding [7]: binds

B3: MACH (construct with the full-length MACH cDNA) (protein)
chain: MDFSRNLYDIGEQLDSEDLASLKFLSLDYIPQRKQEPIKDALMLFQRLQEKRMLEESNLSFLKELLFRINRLDLLITYLNTRKEEMERELQTPGRAQISAYRVMLYQISEEVSRSELRSFKFLLQEEISKCKLDDDMNLLDIFIEMEKRVILGEGKLDILKRVCAQINKSLLKIINDYEEFSKERSSSLEGSPDEFSNDFGQSLPNEKQTSGILSDHQQSQFCKSTGESAQTSQH
binding [8]: binds

B4: MACHβ1 (ORF-B of MACH) (protein)
chain: B3 chain
binding [9]: binds
binding [10]: binds
binding [11]: binds
binding [5]: binds
binding [12]: binds

B5: MORT-1 fragment, amino acids 1-117 (N-terminal part) (protein)
chain: T6 sequence
binding [7]: binds

B6: MACHβ1 fused at its N-terminus to the FLAG octapeptide (protein, not shown: small tags and cut ends)
chain: B3 chain
binding [13]: binds
